PubChem BioAssay AID248 (DTP/NCI, 2004)
The list is a part of this screen's results and no random one: it gathers tests that were run many times, whatever their T/C, doses with no T/C, and many T/C values between a quarter and a half above the control. Other doses and runs of a compound stand elsewhere. T/C is the treated group as % of the vehicle group. Some doses have a count of surviving animals in place of a T/C: the source files T/C as zero there, which appears to mark a toxic dose or a test without result, not a measured value. Some doses without a T/C left all or most animals alive at the check, yet need not have been tolerated: survival well below the control is almost never listed, so the zero probably covers shortened survival too. Survivors were counted at the toxicity check, usually on the fifth day, unless a day is given; later deaths do not show. Schedules are NCI's codes, read here as Q, the interval in days (D) or hours (H), X, the number of doses. Some entries were tested several times; their values stand side by side, smallest first. Some molecules as drawn cover several salts, stereoisomers or complexes of the source; a dose is that of the sample tested. Additions like (4×) say how often a value occurs here. Where survival is the endpoint, the PubChem record calls one and a half times the control and up active, and a quarter to a half above the control has no call in these data; cut-offs in other NCI protocols can differ.

Tested on: L1210 leukemia ip in BDF1 mice, survival T/C
Experiment: NCI In Vivo Anticancer Drug Screen. Data for tumor model L1210 Leukemia (intraperitoneal) in B6D2F1 (BDF1) mice
Settings: T/C endpoint: mean survival time, higher T/C = longer survival
[1] = dose: 200.0 mg/kg/injection, schedule: Q01DX009 (ip), vehicle: saline with Tween-80
[2] = dose: 400.0 mg/kg/injection, schedule: Q04DX003 (ip), vehicle: saline with Tween-80
[3] = dose: 400.0 mg/kg/injection, schedule: Q04DX003 (ip), vehicle: saline
[4] = dose: 200.0 mg/kg/injection, schedule: Q04DX003 (ip), vehicle: Klucel (hydroxypropylcellulose) (HPC)
[5] = dose: 300.0 mg/kg/injection, schedule: Q01DX001 (ip), vehicle: saline
[6] = dose: 75.0 mg/kg/injection, schedule: Q01DX001 (ip), vehicle: saline
[7] = dose: 150.0 mg/kg/injection, schedule: Q01DX001 (ip), vehicle: saline
[8] = dose: 400.0 mg/kg/injection, schedule: Q01DX009 (ip), vehicle: Klucel (hydroxypropylcellulose) (HPC)
[9] = dose: 200.0 mg/kg/injection, schedule: Q04DX003 (ip), vehicle: saline
[10] = dose: 400.0 mg/kg/injection, schedule: Q01DX009 (ip), vehicle: saline
[11] = dose: 400.0 mg/kg/injection, schedule: Q01DX001 (ip), vehicle: saline
[12] = dose: 100.0 mg/kg/injection, schedule: Q01DX001 (ip), vehicle: saline
[13] = dose: 200.0 mg/kg/injection, schedule: Q01DX001 (ip), vehicle: saline
[14] = dose: 400.0 mg/kg/injection, schedule: Q04DX002 (ip), vehicle: saline
[15] = dose: 50.0 mg/kg/injection, schedule: Q04DX003 (ip), vehicle: saline
[16] = dose: 100.0 mg/kg/injection, schedule: Q04DX003 (ip), vehicle: saline
[17] = dose: 80.0 mg/kg/injection, schedule: Q01DX001 (ip), vehicle: saline
[18] = dose: 400.0 mg/kg/injection, schedule: Q04DX003 (ip), vehicle: Klucel (hydroxypropylcellulose) (HPC)
[19] = dose: 100.0 mg/kg/injection, schedule: Q04DX002 (ip), vehicle: saline

C#CC[N+]1=CN(c2ccc(C)cc2)Cc2cc(C)ccc21
survivor count [1]: 0 of 6 | survivor count [2]: 3 of 6

CC(C)(C)OC(=O)C1=CNCCC1
survivor count [3]: 0 of 6

CCOC(=O)c1cc(Cl)cc(Cl)c1N=NN(C)C
T/C (dose: 100.0 mg/kg/injection, schedule: Q01DX009 (ip), vehicle: saline with Tween-80): 125 % of control

COc1ccc(OC)c(NC(=O)Nc2nccs2)c1
T/C [4]: 126 % of control

c1cc[n+](CCNCC[n+]2ccccc2)cc1
survivor count [5]: 0 of 6

CN1CCN(C(=S)[S-])CC1.CN1CCN(C(=S)[S-])CC1.[Zn]
survivor count (dose: 40.0 mg/kg/injection, schedule: Q01DX001 (ip), vehicle: saline): 0 of 6 | survivor count [6]: 0 of 6 | survivor count [7]: 0 of 6 | survivor count [5]: 0 of 6

CC(=O)OCC1CCC(NC(=O)N(CCCl)N=O)CC1 (stereo not given)
T/C (dose: 60.0 mg/kg/injection, schedule: Q01DX001 (ip), vehicle: Klucel (hydroxypropylcellulose) (HPC)): 133 % of control | survivor count (dose: 90.0 mg/kg/injection, schedule: Q01DX001 (ip), vehicle: Klucel (hydroxypropylcellulose) (HPC)): 10 of 10 | survivor count (dose: 134.0 mg/kg/injection, schedule: Q01DX001 (ip), vehicle: Klucel (hydroxypropylcellulose) (HPC)): 10 of 10 | survivor count (dose: 200.0 mg/kg/injection, schedule: Q01DX001 (ip), vehicle: Klucel (hydroxypropylcellulose) (HPC)): 10 of 10 | survivor count (dose: 300.0 mg/kg/injection, schedule: Q01DX001 (ip), vehicle: Klucel (hydroxypropylcellulose) (HPC)): 2 of 10

COc1cc(C2=N/C(=C\c3cccc([N+](=O)[O-])c3)C(=O)O2)cc(OC)c1OC
survivor count (dose: 200.0 mg/kg/injection, schedule: Q04DX002 (ip), vehicle: saline with Tween-80): 3 of 3 | survivor count (dose: 400.0 mg/kg/injection, schedule: Q04DX002 (ip), vehicle: saline with Tween-80): 3 of 3

CCOC(=O)NNC(=S)NCc1ccccc1
survivor count [8]: 0 of 6

CCN(CC)CCOC(=O)c1ccc(N)cc1
survivor count (dose: 200.0 mg/kg/injection, schedule: Q01DX009 (ip), vehicle: saline): 0 of 6 and 2 of 6 | survivor count [9]: 2 of 4 | survivor count [10]: 0 of 6 | survivor count [3]: 0 of 4

CC(=O)OCC[N+](C)(C)CCCCCCCCCC[N+](C)(C)CCOC(C)=O
survivor count (dose: 12.5 mg/kg/injection, schedule: Q01DX009 (ip), vehicle: saline): 2 of 6 | survivor count (dose: 25.0 mg/kg/injection, schedule: Q01DX009 (ip), vehicle: Klucel (hydroxypropylcellulose) (HPC)): 0 of 6 | survivor count (dose: 50.0 mg/kg/injection, schedule: Q01DX009 (ip), vehicle: Klucel (hydroxypropylcellulose) (HPC)): 0 of 6

CCOC(=O)NC(S(=O)(=O)O)S(=O)(=O)O.[Tl]
survivor count (dose: 50.0 mg/kg/injection, schedule: Q01DX001 (ip), vehicle: saline with Tween-80): 1 of 3 | survivor count (dose: 100.0 mg/kg/injection, schedule: Q01DX001 (ip), vehicle: saline with Tween-80): 0 of 3

CN(C1=CC(=O)C(=O)c2ccccc21)c1ccccc1
survivor count (dose: 400.0 mg/kg/injection, schedule: Q01DX001 (ip), vehicle: Klucel (hydroxypropylcellulose) (HPC)): 0 of 6

Cc1c(O)cc(O)cc1O
survivor count [11]: 2 of 6

CC1(C)N=C(N)N=C(N)N1c1cccc(CCCCc2c(Cl)cccc2Cl)c1
survivor count [12]: 0 of 6 | survivor count [13]: 0 of 6 | survivor count [11]: 0 of 6

CCCCC[CH2][Sn]([CH2]C)([CH2]C)[CH2]C
survivor count [14]: 0 of 3

NCCC1CCCCN1 (stereo not given)
survivor count (dose: 200.0 mg/kg/injection, schedule: Q04DX003 (ip), vehicle: acetone): 0 of 6 | survivor count (dose: 400.0 mg/kg/injection, schedule: Q04DX003 (ip), vehicle: acetone): 1 of 6

C=C(Br)CNS(C)(=O)=O
survivor count [15]: 0 of 6 | survivor count [16]: 0 of 6 | survivor count [9]: 0 of 6 | survivor count [3]: 0 of 6

CN1CCN(C2CCCc3ccccc3C2O)CC1 (stereo not given)
survivor count [17]: 1 of 4 | survivor count [12]: 2 of 4 | survivor count [13]: 0 of 4 | survivor count [11]: 0 of 4

BrCCCc1ccccc1
survivor count [5]: 3 of 6

Cc1cccc(NC(=O)CCl)c1C
survivor count [8]: 0 of 6 | survivor count [18]: 4 of 6

C[N+](C)(C)C1(Cc2ccc(Cl)cc2)c2ccccc2-c2ccccc21
survivor count (dose: 100.0 mg/kg/injection, schedule: Q04DX003 (ip), vehicle: Klucel (hydroxypropylcellulose) (HPC)): 1 of 6 | survivor count [4]: 0 of 6 | survivor count [18]: 0 of 6

CCCC1(CC)C(=O)N=C(N)NC1=O (stereo not given)
survivor count (dose: 100.0 mg/kg/injection, schedule: Q01DX001 (ip), vehicle: Klucel (hydroxypropylcellulose) (HPC)): 0 of 3

CCC(C)C1(C)C(=O)N(C)C(=S)N(C)C1=O (stereo not given)
survivor count [6]: 3 of 6 | survivor count [17]: 1 of 6 | survivor count [7]: 3 of 6 | survivor count [5]: 0 of 6

COc1cc([N+](=O)[O-])c2c(ccc[n+]2C)c1OC
survivor count [2]: 0 of 6

CCCCNC(C)(C)C(SS)c1ccc(Cl)cc1 (stereo not given)
survivor count (dose: 200.0 mg/kg/injection, schedule: Q01DX009 (ip), vehicle: other): 5 of 6

O=c1[nH]c2ccccc2o1
survivor count [19]: 3 of 3

C[n+]1ccccc1/C=C/c1ccc2cccc(O)c2n1
survivor count (dose: 64.0 mg/kg/injection, schedule: Q01DX015 (ip), vehicle: saline): 0 of 6 | survivor count [7]: 0 of 6 | survivor count [5]: 0 of 6

O=C(CCl)Oc1ccccc1
survivor count [1]: 0 of 6 | survivor count [2]: 0 of 6

Nc1ncnc2c1nnn2C1CC(CO)C(O)C1O (stereo not given)
T/C (dose: 100.0 mg/kg/injection, schedule: Q04DX003 (ip), vehicle: other): 126 % of control

NC(=O)N/N=C(/CCC(=O)O)C(=O)O
survivor count [16]: 6 of 6 | survivor count [3]: 6 of 6

CC(C)COC(=O)CCCc1ccc(N(CCCl)CCCl)cc1
survivor count [14]: 1 of 3

O=[N+]([O-])c1cccc(S(=O)(=O)SC(Cl)(Cl)Cl)c1
survivor count [15]: 3 of 3 | survivor count [16]: 0 of 3 and 1 of 3 | survivor count [9]: 0 of 3 | survivor count [3]: 0 of 3

NNC(=S)S
survivor count [6]: 0 of 6 | survivor count [7]: 0 of 6 | survivor count [5]: 0 of 6

CC[N+]1(C2CCCCC2)CCCCC1
survivor count [6]: 1 of 6 | survivor count [17]: 3 of 6 | survivor count [7]: 0 of 6 (2×) | survivor count [5]: 0 of 6 (2×)

CC(C)(C)OOC(=O)c1ccccc1O
survivor count (dose: 200.0 mg/kg/injection, schedule: Q01DX009 (ip), vehicle: saline sonified): 5 of 6 | survivor count (dose: 400.0 mg/kg/injection, schedule: Q01DX009 (ip), vehicle: saline sonified): 0 of 6

O=[N+]([O-])c1cc(COc2ccc(Cl)c(Cl)c2)ccc1Cl
T/C [19]: 126 % of control

O=C(NO)c1cc(Cl)c(C(=O)NO)cc1Cl
survivor count (dose: 400.0 mg/kg/injection, schedule: Q01DX009 (ip), vehicle: other): 6 of 6

CC1CC2OC(=O)C(O)(CO)C2CC2(C)C(=O)C=CC12 (stereo not given)
survivor count (dose: 200.0 mg/kg/injection, schedule: Q04DX002 (ip), vehicle: saline): 1 of 3 | survivor count [14]: 0 of 3

Cc1ccc2c([nH]1)c(C)cc1nc3ccccc3c12
survivor count (dose: 100.0 mg/kg/injection, schedule: Q01DX001 (ip), vehicle: carboxymethylcellulose (CMC)): 2 of 4

CCc1ccccc1NC(=O)N1CCN(C)CC1
survivor count [10]: 0 of 6
